# According to patent publication EP1435356A1, “Quinoline derivatives as CRTH2 antagonists” (Warner-Lambert Company LLC, priority 2003, dated 2004):
# Some results were stated once for a whole list of compounds, not compound by compound.
# Target: T1, CRTH2 (Homo sapiens, UniProt Q9Y5Y4)
# T1 construct: expressed in transfected cells; host or cells: L1.2 cells (membrane preparation)
# T1 sequence (Q9Y5Y4 1-395): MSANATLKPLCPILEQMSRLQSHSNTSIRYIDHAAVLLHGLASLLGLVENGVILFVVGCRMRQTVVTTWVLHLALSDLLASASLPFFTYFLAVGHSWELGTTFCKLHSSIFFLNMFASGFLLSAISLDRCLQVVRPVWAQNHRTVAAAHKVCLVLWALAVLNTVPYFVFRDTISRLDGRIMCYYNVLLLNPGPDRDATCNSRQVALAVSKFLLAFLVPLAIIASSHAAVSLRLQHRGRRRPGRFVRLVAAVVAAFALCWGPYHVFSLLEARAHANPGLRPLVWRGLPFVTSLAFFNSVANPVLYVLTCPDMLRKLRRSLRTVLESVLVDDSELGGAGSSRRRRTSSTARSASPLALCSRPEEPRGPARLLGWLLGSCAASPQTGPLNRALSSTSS
# Assay: Binding test (3H-PGD2 competition, SPA)
# Settings: competition with 3H-PGD2 for binding to membranes from CRTH2-expressing L1.2 cells, SPA beads, room temperature, at least 1 hour
row,SMILES,IC50
1,"CC(=O)N(c1ccccc1)[C@@H]1C[C@H](C)N(C(=O)c2ccccc2)c2ccc(Cl)cc21 (relative stereo) [Example 85, Cis-N-(1-Benzoyl-6-chloro-2-methyl-1,2,3,4-tetrahydro-quinolin-4-yl)-N-phenyl-acetamide]",< 5 µM
2,"CC(=O)N(Cc1ccccc1)[C@H]1C[C@H](C)N(C(=O)c2cccs2)c2ccccc21 (relative stereo) [Example 81, Trans-N-Benzyl-N-[2-methyl-1-(thiophene-2-carbonyl)-1,2,3,4-tetrahydro-quinolin-4-yl]-acetamide]",< 5 µM
3,"CC(=O)N(c1ccccc1)C1CC(C)N(C(=O)c2cc[n+]([O-])cc2)c2ccccc21 (stereo not drawn) [Example 4, Cis-N-[2-Methyl-1-(1-oxy-pyridine-4-carbonyl)-1,2,3,4-tetrahydro-quinolin-4-yl]-N-phenyl-acetamide]",< 5 µM
4,"CC(=O)N(c1ccccc1)[C@@H]1C[C@H](C)N(C(=O)c2cc(C(C)(C)C)oc2C)c2ccccc21 (relative stereo) [Example 74, Cis-N-[1-(5-tert-Butyl-2-methyl-furan-3-carbonyl)-2-methyl-1,2,3,4-tetrahydro-quinolin-4-yl]-N-phenyl-acetamide]",< 5 µM
5,"CC(=O)N(c1ccccc1)[C@@H]1C[C@H](C)N(C(=O)c2cccnc2Cl)c2ccccc21 (relative stereo) [Example 23, Cis-N-[1-(2-Chloro-pyridine-3-carbonyl)-2-methyl-1,2,3,4-tetrahydro-quinolin-4-yl]-N-phenyl-acetamide]",< 5 µM
6,"CC(=O)N(c1ccccc1)[C@@H]1C[C@H](C)N(C(=O)c2ccc(C)s2)c2ccccc21 (relative stereo) [Example 14, Cis-N-[2-Methyl-1-(5-methyl-thiophene-2-carbonyl)-1,2,3,4-tetrahydro-quinolin-4-yl]-N-phenyl-acetamide]",< 5 µM
7,"C[C@H]1C[C@@H](N(C(=O)CC(=O)O)c2ccccc2)c2ccccc2N1C(=O)c1ccccc1 (relative stereo) [Example 92, Cis-N-(1-Benzoyl-2-methyl-1,2,3,4-tetrahydro-quinolin-4-yl)-N-phenyl-malonamic acid]",< 5 µM
8,"CC(=O)N(c1ccccc1)[C@@H]1C[C@H](C)N(C(=O)c2ccc(C)nc2)c2ccccc21 (relative stereo) [Example 65, Cis-N-[2-Methyl-1-(6-methyl-pyridine-3-carbonyl)-1,2,3,4-tetrahydro-quinolin-4-yl]-N-phenyl-acetamide]",< 5 µM
9,"CC(=O)N(c1ccccc1)[C@@H]1C[C@H](C)N(C(=O)c2cnc(Cl)c(Cl)c2)c2ccccc21 (relative stereo) [Example 29, Cis-N-[1-(5,6-Dichloro-pyridine-3-carbonyl)-2-methyl-1,2,3,4-tetrahydro-quinolin-4-yl]-N-phenyl-acetamide]",< 5 µM
10,"COc1coc(C(=O)N2c3ccccc3[C@H](N(C(C)=O)c3ccccc3)C[C@@H]2C)c1OC (relative stereo) [Example 58, Cis-N-[1-(3,4-Dimethoxy-furan-2-carbonyl)-2-methyl-1,2,3,4-tetrahydro-quinolin-4-yl]-N-phenyl-acetamide]",< 5 µM
11,"CC(=O)N(c1ccccc1)[C@@H]1C[C@H](C)N(C(=O)c2cnccn2)c2ccccc21 (relative stereo) [Example 17, Cis-N-[2-Methyl-1-(pyrazine-2-carbonyl)-1,2,3,4-tetrahydro-quinolin-4-yl]-N-phenyl-acetamide]",< 5 µM
12,"CCCSc1ncccc1C(=O)N1c2ccccc2[C@H](N(C(C)=O)c2ccccc2)C[C@@H]1C (relative stereo) [Example 28, Cis-N-[2-Methyl-1-(2-propylsulfanyl-pyridine-3-carbonyl)-1,2,3,4-tetrahydro-quinolin-4-yl]-N-phenyl-acetamide]",< 5 µM
13,"CC[C@H]1C[C@@H](N(C(C)=O)c2ccccc2)c2ccccc2N1C(=O)c1cccnc1 (relative stereo) [Example 101, Cis-N-[2-Ethyl-1-(pyridine-3-carbonyl)-1,2,3,4-tetrahydro-quinolin-4-yl]-N-phenyl-acetamide]",< 5 µM
14,"CC(=O)N(C1CC1)[C@@H]1C[C@H](C)N(C(=O)c2cc(C)no2)c2ccccc21 (relative stereo) [Example 98, Cis-N-Cyclopropyl-N-[2-methyl-1-(3-methyl-isoxazole-5-carbonyl)-1,2,3,4-tetrahydro-quinolin-4-yl]-acetamide]",< 5 µM
15,"CC(=O)N(c1ccccc1)[C@@H]1C[C@H](C)N(C(=O)c2ccno2)c2ccccc21 (relative stereo) [Example 35, Cis-N-[1-(Isoxazole-5-carbonyl)-2-methyl-1,2,3,4-tetrahydro-quinolin-4-yl]-N-phenyl-acetamide]",< 5 µM
16,"CCc1cc(C(=O)N2c3ccccc3[C@H](N(C(C)=O)c3ccccc3)C[C@@H]2C)n(C)n1 (relative stereo) [Example 75, Cis-N-[1-(5-Ethyl-2-methyl-2H-pyrazole-3-carbonyl)-2-methyl-1,2,3,4-tetrahydro-quinolin-4-yl]-N-phenyl-acetamide]",< 5 µM
17,"CC(=O)N(c1ccccc1)[C@@H]1C[C@H](C)N(C(=O)c2snnc2C)c2ccccc21 (relative stereo) [Example 31, Cis-N-[2-Methyl-1-(4-methyl-[1,2,3]thiadiazole-5-carbonyl)-1,2,3,4-tetrahydro-quinolin-4-yl]-N-phenyl-acetamide]",< 5 µM
18,"CC(=O)N(c1ccccc1)[C@@H]1C[C@H](C)N(C(=O)c2sncc2C)c2ccccc21 (relative stereo) [Example 40, Cis-N-[2-Methyl-1-(4-methyl-isothiazole-5-carbonyl)-1,2,3,4-tetrahydro-quinolin-4-yl]-N-phenyl-acetamide]",< 5 µM
19,"CC(=O)N(c1ccccc1)[C@@H]1C[C@H](C)N(C(=O)c2[nH]ncc2Cl)c2ccccc21 (relative stereo) [Example 46, Cis-N-[1-(4-Chloro-2H-pyrazole-3-carbonyl)-2-methyl-1,2,3,4-tetrahydro-quinolin-4-yl]-N-phenyl-acetamide]",< 5 µM
20,"CCCc1cc(C(=O)N2c3ccccc3[C@H](N(C(C)=O)c3ccccc3)C[C@@H]2C)no1 (relative stereo) [Example 52, Cis-N-[2-Methyl-1-(5-propyl-isoxazole-3-carbonyl)-1,2,3,4-tetrahydro-quinolin-4-yl]-N-phenyl-acetamide]",< 5 µM
21,"CSc1ncccc1C(=O)N1c2ccccc2[C@H](N(C(C)=O)c2ccccc2)C[C@@H]1C (relative stereo) [Example 22, Cis-N-[2-Methyl-1-(2-methylsulfanyl-pyridine-3-carbonyl)-1,2,3,4-tetrahydro-quinolin-4-yl]-N-phenyl-acetamide]",< 5 µM
22,"CC(=O)N(c1ccccc1)[C@@H]1C[C@H](C)N(C(=O)c2ccccc2)c2ccc(O)cc21 (relative stereo) [Example 84, Cis-N-(1-Benzoyl-6-hydroxy-2-methyl-1,2,3,4-tetrahydro-quinolin-4-yl)-N-phenyl-acetamide]",< 5 µM
23,"CC(=O)N(C1CC1)[C@@H]1C[C@H](C)N(C(=O)c2cccnc2)c2ccccc21 [Example 96, (+)-Cis-N-cyclopropyl-N-[2-methyl-1-(pyridine-3-carbonyl)-1,2,3,4-tetrahydro-quinolin-4-yl]-acetamide]",< 5 µM
24,"CC(=O)N(c1ccccc1)[C@@H]1C[C@H](C)N(C(=O)CCc2ccccc2)c2ccccc21 (relative stereo) [Example 13, Cis-N-[2-Methyl-1-(3-phenyl-propionyl)-1,2,3,4-tetrahydro-quinolin-4-yl]-N-phenyl-acetamide]",< 5 µM
25,"COCc1ccc(C(=O)N2c3ccccc3[C@H](N(C(C)=O)c3ccccc3)C[C@@H]2C)o1 (relative stereo) [Example 62, Cis-N-[1-(5-Methoxymethyl-furan-2-carbonyl)-2-methyl-1,2,3,4-tetrahydro-quinolin-4-yl]-N-phenyl-acetamide]",< 5 µM
26,"CC(=O)N(c1ccccc1)[C@@H]1C[C@H](C)N(C(=O)C=Cc2ccccc2)c2ccccc21 (relative stereo) [Example 8, Cis-N-[2-Methyl-1-(3-phenyl-acryloyl)-1,2,3,4-tetrahydro-quinolin-4-yl]-N-phenyl-acetamide]",< 5 µM
27,"CC(=O)N(c1ccccc1)[C@@H]1C[C@H](C)N(C(=O)c2cc(C)nn2C)c2ccccc21 (relative stereo) [Example 33, Cis-N-[1-(2,5-Dimethyl-2H-pyrazole-3-carbonyl)-2-methyl-1,2,3,4-tetrahydro-quinolin-4-yl]-N-phenyl-acetamide]",< 5 µM
28,"CC(=O)N(c1ccccc1)[C@@H]1C[C@H](C)N(C(=O)c2occc2C)c2ccccc21 (relative stereo) [Example 59, Cis-N-[2-Methyl-1-(3-methyl-furan-2-carbonyl)-1,2,3,4-tetrahydro-quinolin-4-yl]-N-phenyl-acetamide]",< 5 µM
29,"CC(=O)N(c1ccccc1)[C@@H]1C[C@H](C)N(C(=O)C2(C)NN(C)c3nccc(Cl)c32)c2ccccc21 (relative stereo) [Example 26, Cis-N-[1-(4-Chloro-1,3-dimethyl-1H-pyrazolo[3,4-b]pyridine-3-carbonyl)-2-methyl-1,2,3,4-tetrahydro-quinolin-4-yl]-N-phenyl-acetamide]",< 5 µM
30,"COC(=O)c1ccc(C(=O)N2c3ccccc3[C@H](N(C(C)=O)c3ccccc3)C[C@@H]2C)cc1 (relative stereo) [Example 11, 4-[cis-4-(Acetyl-phenyl-amino)-2-methyl-3,4-dihydro-2H-quinoline-1-carbonyl]-benzoic acid methyl ester]",< 5 µM
